Experimental data published in publication doi:10.1101/2023.12.19.572484.
Results are given in words; binding and its absence hold for the method and conditions named. In cells and extracts the contact can be indirect. Some binding calls cover weakened binding; strength is not graded here.

By UniProt entry, the sequences of proteins in these tests, tags left out. Where a name states a change or a piece, a line headed by the entry shows the natural chain unless it says otherwise.
UniProt P16045: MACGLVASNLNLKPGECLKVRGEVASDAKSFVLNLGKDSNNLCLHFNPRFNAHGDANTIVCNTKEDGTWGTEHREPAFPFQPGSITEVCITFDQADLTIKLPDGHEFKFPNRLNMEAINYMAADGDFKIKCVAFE
UniProt P01731: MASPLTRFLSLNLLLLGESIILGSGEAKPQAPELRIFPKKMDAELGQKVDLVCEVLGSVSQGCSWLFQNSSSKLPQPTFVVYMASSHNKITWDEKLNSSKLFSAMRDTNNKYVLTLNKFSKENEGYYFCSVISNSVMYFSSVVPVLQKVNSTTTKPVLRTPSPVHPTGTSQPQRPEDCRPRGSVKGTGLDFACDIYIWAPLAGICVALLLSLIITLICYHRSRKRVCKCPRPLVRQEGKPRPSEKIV

Biological target: recombinant Galectin-1 coupled with sepharose beads (UniProt P16045)
Assay: pull-down

- binding: binds
Substance: CD8α/β of wild-type control OT-1 CD8+ T-cells (from UniProt P01731 28-247; P10300 22-213) (complex)
